# Assay results published in paper PMC5461112, “Structure analyses reveal a regulated oligomerization mechanism of the PlexinD1/GIPC/myosin VI complex” (eLife, 2017).
# No constants are given. Whether binding was seen depends on the method and setting.
# B1: mouse GIPC1 GH2 domain (residues 258-333), Q9Z0G0 258-333 (domain or fragment)
# chain: SAFEEKAIEKVDDLLESYMGIRDTELAATMVELGKDKRNPDELAEALDERLGDFAFPDEFVFDVWGAIGDAKVGRY
# B2: mouse GIPC1 linker-GH2 (residues 217-333) (domain or fragment, UniProt Q9Z0G0 217-333)
# chain: AFDMISQRSAGGHPGSGPQLGTGRGTLRLRSRGPATVEDLPSAFEEKAIEKVDDLLESYMGIRDTELAATMVELGKDKRNPDELAEALDERLGDFAFPDEFVFDVWGAIGDAKVGRY
# Experiments:
# [1] = biological target: T1, mouse GIPC1 GH2 domain (residues 258-333) (mouse), Q9Z0G0; assay: AUC; sedimentation velocity of single proteins (GH2 at 30 μM, HCBD at 20 μM); 10 mM Tris pH 8.0, 150 mM NaCl, 1 mM TCEP; 4°C, 50,000 rpm; both purified; conditions: remark: other sources report otherwise
# T1 chain: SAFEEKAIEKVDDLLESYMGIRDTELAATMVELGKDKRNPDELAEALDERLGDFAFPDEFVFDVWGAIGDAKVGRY
# [2] = biological target: mouse GIPC1 linker-GH2 (residues 217-333) (mouse) (UniProt Q9Z0G0); assay: AUC; sedimentation velocity of single proteins (linker-GH2 at 38 μM and 200 μM, HCBD at 150 μM); 10 mM Tris pH 8.0, 500 mM NaCl, 1 mM TCEP; 4°C, 50,000 rpm; both purified
Binder,binding [1],binding [2]
B1,no binding (tested: 30 μM),
B2,,no binding (tested: 200 μM)
